# Results deposited as PubChem BioAssay AID686943 (Drosophila RNAi Screening Center, 2013)
# Assay: 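Fly genes whose loss alters ERK activation after insulin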 (primary screen)
# System: Drosophila S2R+ haemocyte-like cells expressing YFP-tagged ERK (Rolled)
# Reagents: long dsRNA against Drosophila genes
# Conditions: insulin stimulation versus unstimulated cells; dose and duration not given
# Measured: 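Antibody staining for doubly phosphorylated ERK divided by ERK-YFP signal, as plate z-scores, in insulin-treated and untreated cells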
# Scale: replicate 1, z-score of dpERK with insulin and replicate 2, z-score of dpERK with insulin: higher = more active ERK per ERK-YFP after insulin; replicate 1, z-score of dpERK under basal conditions: higher = more basal active ERK per ERK-YFP; replicate 1, z-score of ERK-YFP with insulin: higher = more YFP-tagged ERK signal
# In all, the deposit lists about 23,000 reagents; shown is an unselected part of those with a known target gene and a result. 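Extra replicates exist only for a retested subset of genes; insulin dose and duration not given; both raised and lowered dpERK matter.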 A plus sign joins genes that one reagent is predicted to hit. Reagent sequences are not shown. The record does not give: the amount of reagent, the time to read-out.
predicted target,dsRNA,"replicate 1, z-score of dpERK with insulin","replicate 2, z-score of dpERK with insulin","replicate 1, z-score of dpERK under basal conditions","replicate 1, z-score of ERK-YFP with insulin"
RPA3,DRSC19658,-0.24,-0.19,0.01,0.31
Lsm12a,DRSC19702,-0.43,0.09,-1.16,0.52
CG7896,DRSC16335,0.4,-0.24,-0.66,-0.51
CG14551,DRSC14894,-0.05,-0.32,-0.08,0.04
Slik,DRSC04471,-0.36,-0.37,0.26,-1.34
Vrp1,DRSC04148,-1.4,-1.69,0.95,1.6
Mal-A7,DRSC06077,0.98,0.39,0.57,0.02
Ucp4B + asRNA:CR43465,DRSC02665,-0.58,0.6,0,1.07
CG14695,DRSC14918,-0.94,-0.52,-0.56,0.8
Lcp65Ag3 + Lcp65Ag2 + Lcp65Ag1,DRSC11214,-0.22,0.23,-0.08,0.81
Lcp65Ag3 + Lcp65Ag2 + Lcp65Ag1,DRSC11215,0.59,0.03,-0.61,0.3
ApepP,DRSC01866,-1.67,-0.01,0.46,0.97
Ugt35E1,DRSC15193,0.12,0.29,0.34,0.06
Uev1A,DRSC09763,-1,-1.26,0.78,0.22
CG1640,DRSC19750,0.83,0.7,0.77,1.02
Gr64b + Gr64c,DRSC08444,0.37,0.17,-0.33,0.18
Gr64b + Gr64c,DRSC08445,-0.04,0.11,-0.46,0.76
Dnali1,DRSC16158,-0.01,0.22,-0.38,-2.67
RunxA,DRSC20400,0.93,-0.31,0.6,-0.11
RunxA,DRSC20498,-0.82,-2.19,-1.13,-1.48
RunxA,DRSC20524,-0.04,-0.23,1.28,0.59
RunxA,DRSC21915,-0.15,0.31,0.13,0.18
CG10357,DRSC08155,-0.46,-0.27,-1.01,0.02
Smyd4-4,DRSC05956,0.05,-0.45,0.49,-0.62
Lnpk,DRSC07254,-0.13,0.01,-0.97,0.11
CG9582,DRSC03267,0.02,1.04,-0.56,-0.46
hui,DRSC05977,0.96,1.09,0.01,-0.81
CG42821,DRSC13231,-0.12,0.52,1.09,0.31
AP-1mu,DRSC14089,-0.89,-0.16,-0.31,-0.32
Smr,DRSC19495,-5.69,-4.76,-2.65,-1.63
Smr,DRSC20288,-4.24,-1.98,-2.91,-2.72
ValRS-m,DRSC10535,-0.46,-0.31,-0.2,1.4
chinmo,DRSC00292,0.27,0.23,-0.13,0.74
chinmo,DRSC00485,-1.51,-0.18,2.72,1.53
chinmo,DRSC00509,-2.14,-4.79,-1.05,1.83
chinmo,DRSC22413,-0.86,-1.05,-1.86,-0.01
CG32806,DRSC21699,0.24,-0.4,0.63,1.87
CG9541,DRSC03257,0.09,0.15,1.35,-1.54
Su(var)3-7,DRSC16872,0.39,0.3,1.01,-0.63
